Data reported in patent publication US20220119824A1.
Results are given in words; binding and its absence hold for the method and conditions named. Some results given as binding are weak or reduced against the parent protein; the word gives no strength. Values belong to the binder of their own block, whether it stands above or below them.

Protein sequences, listed by entry. Tags and fused reporters are not part of them. Residues count along the entry.
UniProt Q9NYJ7, residues 27-479: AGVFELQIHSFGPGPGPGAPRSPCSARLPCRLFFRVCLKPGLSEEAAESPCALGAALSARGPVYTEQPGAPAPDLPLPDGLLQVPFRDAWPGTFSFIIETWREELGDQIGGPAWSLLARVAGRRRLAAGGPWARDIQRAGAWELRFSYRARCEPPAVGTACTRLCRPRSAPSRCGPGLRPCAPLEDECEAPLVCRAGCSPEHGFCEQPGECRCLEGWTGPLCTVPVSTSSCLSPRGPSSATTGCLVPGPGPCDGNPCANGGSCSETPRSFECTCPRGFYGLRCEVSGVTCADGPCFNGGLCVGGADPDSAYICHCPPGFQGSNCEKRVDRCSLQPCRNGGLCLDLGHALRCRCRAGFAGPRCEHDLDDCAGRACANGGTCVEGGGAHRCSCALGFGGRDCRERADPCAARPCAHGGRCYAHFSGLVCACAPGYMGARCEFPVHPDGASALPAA

Key:
[1] = biological target: Human DLL3 (R&D Systems) (human) (UniProt Q9NYJ7); assay: bridging ELISA for binding to DLL3 and CD3 in the same assay, HEK293T supernatants
[2] = biological target: Human DLL3 (R&D Systems) (human) (UniProt Q9NYJ7); assay: bridging ELISA for binding to DLL3 and CD3 in the same assay, HEK293T supernatant and purified BiTE

- binding [1]: binds
B1: SC16.34 DLL3HL×CD3HL BiTE (bispecific antibody)
chain: QIQLVQSGPELKRPGETVKISCKASGYTFTNYGMNWVKQAPGKGLKWMGWINTYTGDPTYADDFKGRFAFSLETSASTAYLQINNLKNEDTATYFCARIGGNSPSDYWGQGTSLTVSSGGGGSGGGGSGGGGSSIVMTQTPKFLLVSAGDRVTITCKASQSVSNDVAWYQQKPGQSPKLLIYYASNRYSGVPDRFTGSGYGTDFTFTISTVQAEDLAVYFCQQDYSSPWTFGGGTKLEIKGGGGSEVQLVESGGGLVQPGKSLKLSCEASGFTFSGYGMHWVRQAPGRGLESVAYITSSSINIKYADAVKGRFTVSRDNAKNLLFLQMNILKSEDTAMYYCARFDWDKNYWGQGTMVTVSSGGGGSGGGGSGGGGSDIQMTQSPSSLPASLGDRVTINCQASQDISNYLNWYQQKPGKAPKLLIYYTNKLADGVPSRFSGSGSGRDSSFTISSLESEDIGSYYCQQYYNYPWTFGPGTKLEIKDYKDDDDK

- binding [2]: binds
B2: SC16.34 DLL3LH×CD3HL BiTE (bispecific antibody)
chain: SIVMTQTPKFLLVSAGDRVTITCKASQSVSNDVAWYQQKPGQSPKLLIYYASNRYSGVPDRFTGSGYGTDFTFTISTVQAEDLAVYFCQQDYSSPWTFGGGTKLEIKGGGGSGGGGSGGGGSQIQLVQSGPELKRPGETVKISCKASGYTFTNYGMNWVKQAPGKGLKWMGWINTYTGDPTYADDFKGRFAFSLETSASTAYLQINNLKNEDTATYFCARIGGNSPSDYWGQGTSLTVSSGGGGSEVQLVESGGGLVQPGKSLKLSCEASGFTFSGYGMHWVRQAPGRGLESVAYITSSSINIKYADAVKGRFTVSRDNAKNLLFLQMNILKSEDTAMYYCARFDWDKNYWGQGTMVTVSSGGGGSGGGGSGGGGSDIQMTQSPSSLPASLGDRVTINCQASQDISNYLNWYQQKPGKAPKLLIYYTNKLADGVPSRFSGSGSGRDSSFTISSLESEDIGSYYCQQYYNYPWTFGPGTKLEIKDYKDDDDK
